In paper PMC10916322:
These are yes or no findings as the source states them, for the method shown. Some results given as binding are weak or reduced against the parent protein; the word gives no strength. Tags and fused reporters may be left off the sequences shown.

Target: T1, GST-MIK1^CD (cytoplasmic region of MDIS1-… RECEPTOR LIKE KINASE1, residues 698-983) (UniProt Q9M0G7)
T1 sequence: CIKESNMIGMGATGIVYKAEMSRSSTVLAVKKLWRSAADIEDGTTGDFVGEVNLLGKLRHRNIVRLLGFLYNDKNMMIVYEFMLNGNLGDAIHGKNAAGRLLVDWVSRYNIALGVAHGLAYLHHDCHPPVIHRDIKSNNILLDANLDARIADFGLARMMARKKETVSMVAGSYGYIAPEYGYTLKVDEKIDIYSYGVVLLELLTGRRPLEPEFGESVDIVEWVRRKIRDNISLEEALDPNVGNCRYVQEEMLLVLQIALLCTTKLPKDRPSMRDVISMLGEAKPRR
Experiment: pull-down; GST-MIK1 bound to GST agarose, purified His-MDIS1^CD WT added, 6 h at 4 °C in 20 mM Tris-HCl pH 7.5, 150 mM NaCl, 5% glycerol; washes with 0.3% Triton X-100, 0.1% SDS; immunoblot with anti-His and anti-GST; both purified

B1: His-MDIS1^CD wild-type (cytoplasmic region of MALE DISCOVERER1, residues 362-668) (domain or fragment, UniProt C0LGU7 362-668)
chain: RKRAVKSIGPWKTGLSGQLQKAFVTGVPKLNRSELETACEDFSNIIEAFDGYTVYKGTLSSGVEIAVASTAILETREWTRAMEMTYRRRIDTMSRVNHKNFINLIGYCEEDEPFNRMMVFEYAPNGTLFEHLHDKEMEHLDWNARTRIIMGTAYCLQYMHELNPPISHTKLVSSAIYLTDDYAAKVGEVPFSGQTGSKPRKPMSGDLDQSLLPLPPEPETNVYSFGVLMLEIISGKLSDSEEEGSILKWASKYLENDNLRDMIDPTLTTYKEEELEAICDVARHCLKLDESQRPKMKYVVQQLKEVI
binding: binds
